Some of the results follow.
Experiments:
Assay in all cases: glycan array binding signal (z-score within array); higher = stronger binding
Conditions in all cases: glycan notation: IUPAC condensed, linker removed
[1] = molecular target: Neu5Ac(a2-6)GlcNAc(b1-4)GlcNAc
Procedure, shortened: (§1)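 Columns mapping to the same glycan were averaged after glycan names were converted to IUPAC-condensed notation. The data come from 3228 arrays in the Consortium for Functional Glycomics database, limited to those with an available protein sequence. Binding is reported as a within-array Z-score averaged across arrays of one protein sequence and across linkers.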

[2] = molecular target: Neu5Ac(a2-6)GlcNAc(b1-4)GlcNAc(b1-4)GlcNAc
Procedure, shortened: as §1

Neu5Ac(a2-8)Neu5Ac = molecular target: Neu5Ac(a2-8)Neu5Ac
Procedure, shortened: as §1

[3] = molecular target: Neu5Ac(a2-8)Neu5Ac(a2-3)Gal(b1-3)GalNAc(b1-4)[Neu5Ac(a2-3)]Gal(b1-4)Glc
Procedure, shortened: as §1

[4] = molecular target: Neu5Ac(a2-8)Neu5Ac(a2-3)Gal(b1-3)GalNAc(b1-4)[Neu5Ac(a2-8)Neu5Ac(a2-3)]Gal(b1-4)Glc
Procedure, shortened: as §1

[5] = molecular target: Neu5Ac(a2-8)Neu5Ac(a2-3)Gal(b1-4)Glc
Procedure, shortened: as §1

[6] = molecular target: Neu5Ac(a2-8)Neu5Ac(a2-3)Gal(b1-4)GlcNAc
Procedure, shortened: as §1

[7] = molecular target: Neu5Ac(a2-8)Neu5Ac(a2-3)[Gal(b1-3)GalNAc(b1-4)]Gal(b1-4)Glc
Procedure, shortened: as §1

[8] = molecular target: Neu5Ac(a2-8)Neu5Ac(a2-3)[GalNAc(b1-4)]Gal(b1-4)Glc
Procedure, shortened: as §1

[9] = molecular target: Neu5Ac(a2-8)Neu5Ac(a2-8)Neu5Ac
Procedure, shortened: as §1

[10] = molecular target: Neu5Ac(a2-8)Neu5Ac(a2-8)Neu5Ac(a2-3)Gal(b1-4)Glc
Procedure, shortened: as §1

[11] = molecular target: Neu5Ac(a2-8)Neu5Ac(a2-8)Neu5Ac(a2-3)[Gal(b1-3)GalNAc(b1-4)]Gal(b1-4)Glc
Procedure, shortened: as §1

[12] = molecular target: Neu5Ac(a2-8)Neu5Ac(a2-8)Neu5Ac(a2-3)[GalNAc(b1-4)]Gal(b1-4)Glc
Procedure, shortened: as §1

[13] = molecular target: Neu5Ac(a2-8)Neu5Ac(a2-8)Neu5Ac(a2-8)Neu5Ac(a2-3)[GalNAc(b1-4)]Gal(b1-4)Glc
Procedure, shortened: as §1

[14] = molecular target: Neu5Ac(a2-8)Neu5Gc(a2-3)Gal(b1-4)GlcNAc
Procedure, shortened: as §1

[15] = molecular target: Neu5Ac(b2-6)Gal(b1-4)GlcNAc
Procedure, shortened: as §1

Neu5Ac(b2-6)GalNAc = molecular target: Neu5Ac(b2-6)GalNAc
Procedure, shortened: as §1

[16] = molecular target: Neu5Ac9Ac(a2-3)Gal(b1-3)GlcNAc
Procedure, shortened: as §1

[17] = molecular target: Neu5Ac9Ac(a2-3)Gal(b1-4)GlcNAc
Procedure, shortened: as §1

[18] = molecular target: Neu5Ac9Ac(a2-6)Gal(b1-4)GlcNAc
Procedure, shortened: as §1

[19] = molecular target: Neu5Gc(a2-3)Gal(b1-3)GlcNAc
Procedure, shortened: as §1

[20] = molecular target: Neu5Gc(a2-3)Gal(b1-3)[Fuc(a1-4)]GlcNAc
Procedure, shortened: as §1

Neu5Gc(a2-3)Gal(b1-4)Glc = molecular target: Neu5Gc(a2-3)Gal(b1-4)Glc
Procedure, shortened: as §1

[21] = molecular target: Neu5Gc(a2-3)Gal(b1-4)GlcNAc
Procedure, shortened: as §1

[22] = molecular target: Neu5Gc(a2-3)Gal(b1-4)GlcNAc(b1-3)Gal(b1-4)GlcNAc(b1-2)Man(a1-3)[Neu5Gc(a2-3)Gal(b1-4)GlcNAc(b1-3)Gal(b1-4)GlcNAc(b1-2)Man(a1-6)]Man(b1-4)GlcNAc(b1-4)GlcNAc
Procedure, shortened: as §1

[23] = molecular target: Neu5Gc(a2-3)Gal(b1-4)[Fuc(a1-3)]GlcNAc
Procedure, shortened: as §1

[24] = molecular target: Neu5Gc(a2-6)Gal(b1-4)GlcNAc
Procedure, shortened: as §1

Neu5Gc(a2-6)GalNAc = molecular target: Neu5Gc(a2-6)GalNAc
Procedure, shortened: as §1

[25] = molecular target: Neu5Gc(a2-8)Neu5Ac(a2-3)Gal(b1-4)GlcNAc
Procedure, shortened: as §1

[26] = molecular target: Neu5Gc(a2-8)Neu5Gc(a2-3)Gal(b1-4)GlcNAc
Procedure, shortened: as §1

[27] = molecular target: Neu5Gc(a2-8)Neu5Gc(a2-3)Gal(b1-4)GlcNAc(b1-3)Gal(b1-4)GlcNAc
Procedure, shortened: as §1

[28] = molecular target: Neu5Gc(a2-8)Neu5Gc(a2-6)Gal(b1-4)GlcNAc
Procedure, shortened: as §1

[29] = molecular target: Neu5Gc(b2-6)Gal(b1-4)GlcNAc
Procedure, shortened: as §1

B1: Erv46-EDTA (Saccharomyces cerevisiae), P39727 (protein)
chain: MKFLVNVALVFMVVYISYIYAAAPEHHHHHHDYDIPTTENLYFQGAMDSVVTRPQLVVDRDRHAKLELNMDVTFPSMPCDLVNLDIMDDSGEMQLDILDAGFTMSRLNSEGRPVGDATELHVGGNGDGTAPVNNDPNYCGPCYGAKDQSQNENLAQEEKVCCQDCDAVRSAYLEAGWAFFDGKNIEQCEREGYVSKINEHLNEGCRIKGSAQINRIQGNLHFAPGKPYQNAYGHFHDTSLYDKTSNLNFNHIINHLSFGKPIQSHSKLLGNDKRHGGAVVATSPLDGRQVFPDRNTHFHQFSYFAKIVPTRYEYLDNVVIETAQFSATFHSRPLAGGRDKDHPNTLHVRGGIPGMFVFFEMSPLKVINKEQ
glycan array binding signal (z-score) [1]: -0.42 | glycan array binding signal (z-score) [2]: -0.318 | glycan array binding signal (z-score) (Neu5Ac(a2-8)Neu5Ac): -0.058 | glycan array binding signal (z-score) [3]: -0.029 | glycan array binding signal (z-score) [4]: 0.502 | glycan array binding signal (z-score) [5]: -0.647 | glycan array binding signal (z-score) [6]: -0.501 | glycan array binding signal (z-score) [7]: -0.605 | glycan array binding signal (z-score) [8]: 0.381 | glycan array binding signal (z-score) [9]: -0.012 | glycan array binding signal (z-score) [10]: -0.677 | glycan array binding signal (z-score) [11]: 1.25 | glycan array binding signal (z-score) [12]: -0.316 | glycan array binding signal (z-score) [13]: 0.023 | glycan array binding signal (z-score) [14]: -0.576 | glycan array binding signal (z-score) [15]: -0.403 | glycan array binding signal (z-score) (Neu5Ac(b2-6)GalNAc): -0.481 | glycan array binding signal (z-score) [16]: 0.057 | glycan array binding signal (z-score) [17]: -0.546 | glycan array binding signal (z-score) [18]: -0.848 | glycan array binding signal (z-score) [19]: 0.38 | glycan array binding signal (z-score) [20]: 0.376 | glycan array binding signal (z-score) (Neu5Gc(a2-3)Gal(b1-4)Glc): -0.748 | glycan array binding signal (z-score) [21]: -0.531 | glycan array binding signal (z-score) [22]: 0.192 | glycan array binding signal (z-score) [23]: 0.625 | glycan array binding signal (z-score) [24]: -0.2 | glycan array binding signal (z-score) (Neu5Gc(a2-6)GalNAc): -0.516 | glycan array binding signal (z-score) [25]: -0.817 | glycan array binding signal (z-score) [26]: -0.338 | glycan array binding signal (z-score) [27]: -0.449 | glycan array binding signal (z-score) [28]: -0.091 | glycan array binding signal (z-score) [29]: -0.611
